Results published in the supplement of paper PMC8728848.
The list shows a part of the results.

How the values were obtained:
Assay in all cases: glycan array binding signal (z-score within array); higher = stronger binding
Settings in all cases: glycan notation: IUPAC condensed, linker removed
[1] = biological target: Fuc(a1-2)Gal(b1-4)[Fuc(a1-3)]GlcNAc
Method in brief: (§1)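 The Consortium for Functional Glycomics database supplied 3228 glycan arrays, of which those lacking an available protein sequence were dropped. The binding signal, a within-array Z-score, was averaged across arrays of the same protein sequence and across linkers. Negative scores can be read as non-binding.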

[2] = biological target: Fuc(a1-2)Gal(b1-4)[Fuc(a1-3)]GlcNAc(b1-2)Man(a1-3)[Fuc(a1-2)Gal(b1-4)[Fuc(a1-3)]GlcNAc(b1-2)Man(a1-6)]Man(b1-4)GlcNAc(b1-4)[Fuc(a1-6)]GlcNAc
Method in brief: as §1

[3] = biological target: Fuc(a1-2)Gal(b1-4)[Fuc(a1-3)]GlcNAc(b1-2)[Fuc(a1-2)Gal(b1-4)[Fuc(a1-3)]GlcNAc(b1-4)]Man(a1-3)[Fuc(a1-2)Gal(b1-4)[Fuc(a1-3)]GlcNAc(b1-2)Man(a1-6)]Man(b1-4)GlcNAc(b1-4)GlcNAc
Method in brief: as §1

[4] = biological target: Fuc(a1-2)Gal(b1-4)[Fuc(a1-3)]GlcNAc(b1-3)Gal(b1-4)[Fuc(a1-3)]GlcNAc
Method in brief: as §1

[5] = biological target: Fuc(a1-2)Gal(b1-4)[Fuc(a1-3)]GlcNAc(b1-3)Gal(b1-4)[Fuc(a1-3)]GlcNAc(b1-3)Gal(b1-4)[Fuc(a1-3)]GlcNAc
Method in brief: as §1

[6] = biological target: Fuc(a1-2)Gal(b1-4)[Fuc(a1-3)]GlcNAc(b1-3)GalNAc
Method in brief: as §1

[7] = biological target: Fuc(a1-2)Gal(b1-4)[Fuc(a1-3)]GlcNAc(b1-3)[Neu5Ac(a2-6)Gal(b1-4)GlcNAc(b1-6)]Gal(b1-4)Glc
Method in brief: as §1

[8] = biological target: Fuc(a1-2)Gal3S(b1-4)GlcNAc
Method in brief: as §1

[9] = biological target: Fuc(a1-2)Gal6S(b1-3)GlcNAc
Method in brief: as §1

[10] = biological target: Fuc(a1-2)Gal6S(b1-3)GlcNAc6S
Method in brief: as §1

Fuc(a1-2)Gal6S(b1-4)Glc = biological target: Fuc(a1-2)Gal6S(b1-4)Glc
Method in brief: as §1

[11] = biological target: Fuc(a1-2)Gal6S(b1-4)Glc6S
Method in brief: as §1

Fuc(a1-2)[Gal(a1-3)]Gal = biological target: Fuc(a1-2)[Gal(a1-3)]Gal
Method in brief: as §1

[12] = biological target: Fuc(a1-2)[Gal(a1-3)]Gal(b1-3)GalNAc
Method in brief: as §1

[13] = biological target: Fuc(a1-2)[Gal(a1-3)]Gal(b1-3)GalNAc(b1-3)Gal(a1-4)Gal(b1-4)Glc
Method in brief: as §1

[14] = biological target: Fuc(a1-2)[Gal(a1-3)]Gal(b1-3)GlcNAc
Method in brief: as §1

[15] = biological target: Fuc(a1-2)[Gal(a1-3)]Gal(b1-3)GlcNAc(b1-2)Man(a1-3)[Fuc(a1-2)[Gal(a1-3)]Gal(b1-3)GlcNAc(b1-2)Man(a1-6)]Man(b1-4)GlcNAc(b1-4)GlcNAc
Method in brief: as §1

[16] = biological target: Fuc(a1-2)[Gal(a1-3)]Gal(b1-3)GlcNAc(b1-2)Man(a1-3)[Fuc(a1-2)[Gal(a1-3)]Gal(b1-3)GlcNAc(b1-2)Man(a1-6)]Man(b1-4)GlcNAc(b1-4)[Fuc(a1-6)]GlcNAc
Method in brief: as §1

[17] = biological target: Fuc(a1-2)[Gal(a1-3)]Gal(b1-3)GlcNAc(b1-3)GalNAc
Method in brief: as §1

[18] = biological target: Fuc(a1-2)[Gal(a1-3)]Gal(b1-3)GlcNAc(b1-6)GalNAc
Method in brief: as §1

[19] = biological target: Fuc(a1-2)[Gal(a1-3)]Gal(b1-4)Glc
Method in brief: as §1

[20] = biological target: Fuc(a1-2)[Gal(a1-3)]Gal(b1-4)GlcNAc
Method in brief: as §1

[21] = biological target: Fuc(a1-2)[Gal(a1-3)]Gal(b1-4)GlcNAc(b1-2)Man
Method in brief: as §1

[22] = biological target: Fuc(a1-2)[Gal(a1-3)]Gal(b1-4)GlcNAc(b1-2)Man(a1-3)[Fuc(a1-2)[Gal(a1-3)]Gal(b1-4)GlcNAc(b1-2)Man(a1-6)]Man(b1-4)GlcNAc(b1-4)GlcNAc
Method in brief: as §1

[23] = biological target: Fuc(a1-2)[Gal(a1-3)]Gal(b1-4)GlcNAc(b1-2)Man(a1-3)[Fuc(a1-2)[Gal(a1-3)]Gal(b1-4)GlcNAc(b1-2)Man(a1-6)]Man(b1-4)GlcNAc(b1-4)[Fuc(a1-6)]GlcNAc
Method in brief: as §1

[24] = biological target: Fuc(a1-2)[Gal(a1-3)]Gal(b1-4)GlcNAc(b1-3)GalNAc
Method in brief: as §1

[25] = biological target: Fuc(a1-2)[Gal(a1-3)]Gal(b1-4)GlcNAc(b1-3)[Fuc(a1-2)[Gal(a1-3)]Gal(b1-4)GlcNAc(b1-6)]GalNAc
Method in brief: as §1

[26] = biological target: Fuc(a1-2)[Gal(a1-3)]Gal(b1-4)GlcNAc(b1-6)GalNAc
Method in brief: as §1

[27] = biological target: Fuc(a1-2)[Gal(a1-3)]Gal(b1-4)[Fuc(a1-3)]Glc
Method in brief: as §1

[28] = biological target: Fuc(a1-2)[Gal(a1-3)]Gal(b1-4)[Fuc(a1-3)]GlcNAc
Method in brief: as §1

[29] = biological target: Fuc(a1-2)[Gal(a1-3)]Gal(b1-4)[Fuc(a1-3)]GlcNAc(b1-3)GalNAc
Method in brief: as §1

[30] = biological target: Fuc(a1-2)[Gal(a1-4)]Gal(b1-4)GlcNAc
Method in brief: as §1

[31] = biological target: Fuc(a1-2)[GalNAc(a1-3)]Gal
Method in brief: as §1

[32] = biological target: Fuc(a1-2)[GalNAc(a1-3)]Gal(b1-3)GalNAc(a1-3)[Fuc(a1-2)]Gal(b1-4)GlcNAc
Method in brief: as §1

[33] = biological target: Fuc(a1-2)[GalNAc(a1-3)]Gal(b1-3)GalNAc(b1-3)Gal(a1-4)Gal(b1-4)Glc
Method in brief: as §1

[34] = biological target: Fuc(a1-2)[GalNAc(a1-3)]Gal(b1-3)GlcNAc
Method in brief: as §1

[35] = biological target: Fuc(a1-2)[GalNAc(a1-3)]Gal(b1-3)GlcNAc(b1-2)Man(a1-3)[Fuc(a1-2)[GalNAc(a1-3)]Gal(b1-3)GlcNAc(b1-2)Man(a1-6)]Man(b1-4)GlcNAc(b1-4)GlcNAc
Method in brief: as §1

[36] = biological target: Fuc(a1-2)[GalNAc(a1-3)]Gal(b1-3)GlcNAc(b1-2)Man(a1-3)[Fuc(a1-2)[GalNAc(a1-3)]Gal(b1-3)GlcNAc(b1-2)Man(a1-6)]Man(b1-4)GlcNAc(b1-4)[Fuc(a1-6)]GlcNAc
Method in brief: as §1

B1: Epa11 (Candida glabrata) (protein)
chain: MGSSHHHHHHSSGLVPRGSHMASSNAPNYPVGCSPSVGTQLTPGLSLEVYAYPMDGNNGYCWNATYKDPEFPRSGYLKNKLLGKADGVVGPLNFLAKNKDCSPKVDTLPAGFNFPQPITVTNFTMVLFGYLAPKQSGKYTFKLLADDLLLLNLGATNAFDCCNREATKNNLGEFLAYNLWPNQDKNVTVYLEKGVYYPLRLFFNNRDGGSQLDFSYYFNDSPAPLTDFSGMFFSVPDGAECPARI
Question: With B1 as the binder, how does the “glycan array binding signal (z-score)” value [1] read?
Answer: -0.402

Question: And the “glycan array binding signal (z-score)” value [2]?
Answer: -0.282

Question: And the “glycan array binding signal (z-score)” value [3]?
Answer: 0.309

Question: And the “glycan array binding signal (z-score)” value [4]?
Answer: -0.268

Question: And the “glycan array binding signal (z-score)” value [5]?
Answer: -0.593

Question: What about the “glycan array binding signal (z-score)” value [6] of the same binder?
Answer: 1.24

Question: And the “glycan array binding signal (z-score)” value [7]?
Answer: -0.575

Question: What about the “glycan array binding signal (z-score)” value [8] of the same binder?
Answer: -0.383

Question: What about the “glycan array binding signal (z-score)” value [9] of the same binder?
Answer: -0.008

Question: What about the “glycan array binding signal (z-score)” value [10] of the same binder?
Answer: 0.849

Question: And the “glycan array binding signal (z-score)” value (Fuc(a1-2)Gal6S(b1-4)Glc)?
Answer: -0.233

Question: And the “glycan array binding signal (z-score)” value [11]?
Answer: -0.331

Question: And the “glycan array binding signal (z-score)” value (Fuc(a1-2)[Gal(a1-3)]Gal)?
Answer: -0.25

Question: And the “glycan array binding signal (z-score)” value [12]?
Answer: -0.026

Question: What about the “glycan array binding signal (z-score)” value [13] of the same binder?
Answer: -0.292

Question: And the “glycan array binding signal (z-score)” value [14]?
Answer: -0.198

Question: What about the “glycan array binding signal (z-score)” value [15] of the same binder?
Answer: 0.056

Question: What about the “glycan array binding signal (z-score)” value [16] of the same binder?
Answer: -0.041

Question: What about the “glycan array binding signal (z-score)” value [17] of the same binder?
Answer: -0.09

Question: What about the “glycan array binding signal (z-score)” value [18] of the same binder?
Answer: -0.191

Question: What about the “glycan array binding signal (z-score)” value [19] of the same binder?
Answer: -0.265

Question: And the “glycan array binding signal (z-score)” value [20]?
Answer: -0.408

Question: What about the “glycan array binding signal (z-score)” value [21] of the same binder?
Answer: 0.436

Question: What about the “glycan array binding signal (z-score)” value [22] of the same binder?
Answer: 0.729

Question: What about the “glycan array binding signal (z-score)” value [23] of the same binder?
Answer: -0.618

Question: And the “glycan array binding signal (z-score)” value [24]?
Answer: 0.18

Question: And the “glycan array binding signal (z-score)” value [25]?
Answer: 0.517

Question: And the “glycan array binding signal (z-score)” value [26]?
Answer: 1.23

Question: And the “glycan array binding signal (z-score)” value [27]?
Answer: -0.081

Question: What about the “glycan array binding signal (z-score)” value [28] of the same binder?
Answer: 0.319

Question: And the “glycan array binding signal (z-score)” value [29]?
Answer: -0.151

Question: What about the “glycan array binding signal (z-score)” value [30] of the same binder?
Answer: 0.294

Question: What about the “glycan array binding signal (z-score)” value [31] of the same binder?
Answer: -0.146

Question: And the “glycan array binding signal (z-score)” value [32]?
Answer: -0.24

Question: And the “glycan array binding signal (z-score)” value [33]?
Answer: 0.521

Question: And the “glycan array binding signal (z-score)” value [34]?
Answer: -0.018

Question: What about the “glycan array binding signal (z-score)” value [35] of the same binder?
Answer: -0.435

Question: What about the “glycan array binding signal (z-score)” value [36] of the same binder?
Answer: 0.53
